In patent US5942489A (The Administrators of the Tulane Educational Fund, priority 1996, dated 1999):

Key:
[1] = general procedure: Boc solid-phase peptide synthesis; BHA resin; DIC (or BOP); preformed HOBt esters for Boc-Asn-OH and Boc-Gln-OH; HBTU/HOBt/DIE; conditions: whole synthesis, scale 0.044 mmole
[2] = general procedure: Boc solid-phase peptide synthesis; benzhydrylamine (BHA) resin (Bachem) or MBHA; Boc-Agm-SPA-aminomethyl resin (California Peptide Research); DIC (or BOP); preformed HOBt esters for Boc-Asn-OH and Boc-Gln-OH; HBTU/HOBt/DIE; conditions: whole synthesis, 220 and 280 nm, scale of the general procedure 0.044 mmole (100 mg BHA resin), 0.06 mmole (200 mg Agm resin)

Substance	crude mass [1] [mg]	final HPLC purity [2] [%]
PEPTIDE1{[PhAc].Y.[dR].D.A.I.[Phe(pCl)].T.S.S.Y.R.K.V.L.A.Q.E.S.A.R.K.L.L.Q.D.I.[Nle].S.R.[am]}$PEPTIDE1,PEPTIDE1,18:R3-22:R3$$$V2.0	13.7	>95
PEPTIDE1{[Ibu].Y.[dR].D.A.I.[Phe(pCl)].T.N.S.Y.R.K.V.L.[Abu].Q.L.S.A.R.K.L.L.Q.D.I.[Nle].S.[Cit].[am]}$$$$V2.0	34	>95
PEPTIDE1{[PhAc].Y.[dR].D.A.I.[Phe(pCl)].T.N.S.Y.R.K.V.L.A.Q.L.S.A.R.K.L.L.Q.D.I.[Nle].S.R.[am]}$$$$V2.0	98	>95

Some peptides are written in HELM: one residue between dots, names in brackets for other building blocks, links after the first $. For part of these data: One purity is given for all peptides; the source may state it once.
